The results in this text go back to PubChem BioAssay AID2685 (National Center for Advancing Translational Sciences (NCATS), 2010).

Each structure is given as a SMILES string. This is one part of the list. The main result of the screen is listed elsewhere. These columns were measured beside it and carry no call. The list favours compounds with an active or inconclusive main result. Potencies come from curve fits of mixed quality, noted in brackets.

A short description of the assay: qHTS Assay for Lipid Storage Modulators in Drosophila S3 Cells.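 As to cell number change: cells counted by Cell Tracker Red CMTPX staining in the red channel.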 The following applies: BODIPY lipid droplet fluorescence, 18-24 h; for cell number change: measured here: cell count max response, cells fed with added oleic acid. Put shortly:
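Drosophila S3 cells got compounds at several concentrations plus oleic acid (400 uM solution). Laser-scanning cytometry with 488 nm excitation read lipid droplets at 500-530 nm and cells at 575-640 nm. Percent activity was relative to 20 uM Triacsin C.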

Where [1] appears, read: measured here: cell number channel AC50, cells fed with added oleic acid.
The mark [2] stands for this setting: measured here: lipid fluorescence (Fed channel) AC50, cells fed with added oleic acid.

Regarding `COC(=O)CSC1=NS(=O)(=O)c2ccccc21`, the cell number change is -237%. For the same compound, the half-maximal activity concentration (AC50) under setting [1] was 25.9 µM [falling, partial curve]. Moreover, the AC50 under setting [2] was 18.4 µM [falling, partial curve].
For the compound `O=C(O)C1C2C=CC(C2)C1C(=O)NC1CCN(Cc2ccccc2)CC1` (centres undefined), the cell number change was -15.8%. Under setting [2], the AC50 is 1.03 µM [falling, full curve].
For `O=C(COC(=O)c1ccc([N+](=O)[O-])cc1Cl)NCc1ccco1`, the cell number change is -30.2%. In addition, under setting [1], the half-maximal activity concentration (AC50) was 0.651 µM [falling, partial curve, poor fit].
As to `O=c1c(Cc2ccccc2)c(O)ccn1CCc1cnc[nH]1`, the cell number change was determined as 20.1%.
As to `Cc1cc(C)n2nc(C(=O)OCC(=O)c3ccccc3Cl)nc2n1`, the cell number change is -1.2%. The AC50 under setting [2] is 0.082 µM [rising, full curve, poor fit].
As for `CCN(CC)S(=O)(=O)c1cccc(NC(=O)CNc2cccc(S(=O)(=O)N3CCCC3)c2)c1`, the cell number change was -73.7%. Further, under setting [1], the AC50 was 2.82 µM [falling, full curve]. Moreover, the concentration at half-maximal activity (AC50) under setting [2] was 1.78 µM [falling, full curve].
Turning to `Nc1nnnn1/N=C/c1cccc(OCc2ccccc2Cl)c1`, the cell number change is -48.5%. For the same compound, the AC50 under setting [1] is 14.6 µM [falling, single point]. Moreover, the AC50 under setting [2] is 16.4 µM [falling, single point].
In the case of `NC(=O)COC(=O)c1ccccc1Nc1ccc(SC(F)F)cc1`, the cell number change was -41%. Further, under setting [1], the AC50 was 0.058 µM [falling, full curve, poor fit]. In addition, the concentration at half-maximal activity (AC50) under setting [2] was 32.6 µM [falling, single point].
With `CCN1C(=O)[C@H]2[C@@H](c3ccc(Cl)cc3)N3C(=O)CN(Cc4ccccc4)C(=O)[C@@]3(C)[C@H]2C1=O`, the cell number change came out at 14.4%. Further, the concentration at half-maximal activity (AC50) under setting [2] is 29.1 µM [rising, single point].
As to `COc1ccc(-c2cc(-c3nnc(-c4ccncc4)o3)c3ccccc3n2)cc1`, the cell number change is 12.3%. Under setting [2], the AC50 is 1.46 µM [rising, full curve].
For the compound `O=C(CCNC(=O)c1ccc(Cl)cc1)NNC(=O)c1ccc(F)cc1`, the cell number change is 19%.
For the compound `Cc1sc2nc(SCC(=O)Nc3ccc(S(N)(=O)=O)cc3)[nH]c(=O)c2c1C`, the cell number change was 33%. The AC50 under setting [2] was 29.1 µM [rising, single point].
With `Cc1ccc(CN2CC(=O)N3[C@H]4c5cc(C)ccc5OC[C@@H]4[C@H](c4ccccc4)[C@]3(C)C2=O)cc1`, the cell number change is -0.552%. The AC50 under setting [1] was 4.11 µM [falling, single point]. For the same compound, the half-maximal activity concentration (AC50) under setting [2] is 3.66 µM [falling, single point].
Turning to `CCc1ccc2nc(NC(=O)c3ccc(N4C(=O)CCC4=O)cc3)sc2c1`, the cell number change was -15.8%. For the same compound, under setting [2], the concentration at half-maximal activity (AC50) was 29.1 µM [falling, single point].
In the case of `FC(F)Sc1ccc(NC2=NCCCCC2)cc1`, the cell number change stood at 12.4%.
On to `CC12CCCC[C@@H]1CCC1C2CCC2(C)C1CC[C@@]2(O)CNCCO` (some centres undefined), for which the cell number change was -2.36%. Also, the AC50 under setting [2] was 2.31 µM [falling, single point].
Regarding `O=C(CN1CCCCCC1)Nc1ccc(Br)cc1`, the cell number change amounted to 7.5%. Besides, the half-maximal activity concentration (AC50) under setting [1] was 4.11 µM [falling, partial curve, poor fit]. The half-maximal activity concentration (AC50) under setting [2] is 0.731 µM [falling, single point].
On to `Cc1ccc(C)n1-c1ccc(C(=O)NN)cc1`, for which the cell number change is 3.54%. Moreover, the half-maximal activity concentration (AC50) under setting [2] is 2.91 µM [rising, single point].
As to `CCC(C)(C)C1CCC2(CC1)NC(=O)N(CC(=O)Nc1cc(C(F)(F)F)ccc1N1CCOCC1)C2=O` (centres undefined), the cell number change is -7.18%.
Consider `COc1ccccc1C(CNC(=O)CCNC(=O)c1ccccc1Cl)N1CCCC1` (centres undefined), for which the cell number change was found to be 5.36%. Besides, the AC50 under setting [1] is 5.8 µM [falling, single point].
As for `Cc1cc2nc3c(=O)n(C4CCCCC4)c(=O)[nH]c3nc2cc1N`, the cell number change amounted to 0.91%. For the same compound, under setting [2], the AC50 is 11.6 µM [falling, partial curve].
As for `Cc1ccc(S(=O)(=O)/N=C(\Nc2cc(C)on2)c2ccc(Cl)cc2)cc1`, the cell number change turned out to be 4.07%. The concentration at half-maximal activity (AC50) under setting [1] was 0.13 µM [falling, full curve, poor fit]. Further, under setting [2], the AC50 was 6.51 µM [rising, partial curve].
In the case of `COc1ccccc1CCc1nnc(N)s1`, the cell number change worked out at 16.3%.
`CCOC(=O)C1(CC/C(C)=N\NC(N)=O)CC(C)OC1=O` (centres undefined): the cell number change came to 5.62%. Besides, the AC50 under setting [1] is 6.51 µM [rising, single point]. Also, the half-maximal activity concentration (AC50) under setting [2] was 8.2 µM [rising, partial curve].
On to `Cc1ccc2[nH]c(-c3ccccc3)c(CN(C)C)c(=O)c2c1`, for which the cell number change is -46.7%. Further, under setting [1], the AC50 was 18.4 µM [falling, single point].
On to `COn1c(-c2ccc(Cl)cc2)nc2ncccc21`, for which the cell number change is -0.118%. In addition, under setting [2], the concentration at half-maximal activity (AC50) was 7.31 µM [rising, partial curve].
As to `COc1ccc(S(=O)(=O)Nc2ccc(CC#N)cc2)cc1`, the cell number change was -21.4%. In addition, under setting [2], the AC50 is 20.6 µM [falling, single point].
Take `O=C(NCCS(=O)(=O)NCc1ccccc1)c1ccc2c(c1)OCO2`: the cell number change was -18.1%. Also, under setting [2], the AC50 is 6.51 µM [falling, single point].
On to `COc1ccc(OC)c(NC(=O)Cn2c(CCC(=O)O)ccc2-c2cccs2)c1`, for which the cell number change stood at 0.255%. Besides, the AC50 under setting [2] is 16.4 µM [rising, single point].
In the case of `O=C(Nc1nc2ccccc2[nH]1)C1CCN(S(=O)(=O)c2cccs2)CC1`, under setting [2], the AC50 was 0.58 µM [rising, single point].
`CCn1c(COc2ccc(C)cc2)nnc1SCC(=O)Nc1ccc(S(N)(=O)=O)cc1`: the cell number change is -0.171%.
As for `C=CCn1c(SCc2ccc(C(=O)OC)cc2)nnc1-c1sc(N)nc1C`, the cell number change worked out at 15.5%. In addition, the concentration at half-maximal activity (AC50) under setting [2] was 7.31 µM [rising, partial curve, poor fit].
For the compound `O=C(Nc1ccccc1)c1ccc(S(=O)(=O)NCC2CCCO2)cc1` (centres undefined), the cell number change is -28.6%. Moreover, the AC50 under setting [1] was 0.164 µM [falling, full curve, poor fit].
For the compound `COC(=O)CN(c1ccc(C)cc1)S(=O)(=O)c1c(C)[nH]c(=O)[nH]c1=O`, the cell number change was -38.2%. Under setting [1], the AC50 was 0.461 µM [falling, full curve, poor fit].
With `CCN(CC)CC(=O)NCC1(c2ccccc2)CCCC1`, the cell number change is -6.71%. In addition, the half-maximal activity concentration (AC50) under setting [2] is 3.66 µM [falling, full curve, poor fit].
As to `N=c1oc2ccccc2cc1-c1nc2ccccc2c(=O)[nH]1`, the cell number change was 70.8%. In addition, the AC50 under setting [1] is 0.259 µM [rising, full curve]. Moreover, the AC50 under setting [2] was 0.116 µM [rising, full curve].
For the compound `Oc1cccc(-c2nc3c4c(ncn3n2)-c2ccccc2CC42CCCC2)c1`, the cell number change was -78%. For the same compound, the concentration at half-maximal activity (AC50) under setting [1] was 6.51 µM [falling, full curve, poor fit].
With `CCCC(=O)Nc1nnc(S(=O)(=O)N2CCCCCC2)s1`, the cell number change is -4.49%. Besides, under setting [2], the half-maximal activity concentration (AC50) was 6.51 µM [rising, single point].
Turning to `COc1ccc(NC(=O)CSc2nnnn2C2CC2)cc1S(=O)(=O)N1CCOCC1`, the cell number change came to 5.95%. Also, the concentration at half-maximal activity (AC50) under setting [2] was 6.51 µM [rising, single point].
Regarding `CCOc1c2ccc(C(=O)NCCc3ccc(C)cc3)cc2nn1CC`, the cell number change worked out at 93%. The AC50 under setting [1] was 11.6 µM [rising, partial curve].
Consider `COc1ccc(C)cc1NC(=O)c1nn(C)c(C(=O)Nc2cc(C)ccc2OC)c1[N+](=O)[O-]`, for which the cell number change is -4.2%. Also, under setting [2], the AC50 is 29.1 µM [rising, single point].
As for `CCOc1ccc(/C=N/Nc2nncc(-c3ccccc3)n2)cc1OC`, the cell number change came out at 53.8%. Also, the AC50 under setting [1] is 5.8 µM [rising, full curve]. In addition, the AC50 under setting [2] is 2.31 µM [rising, single point].
For `O=C(OCc1cc([N+](=O)[O-])cc2c1OCOC2)c1ccc2ccccc2n1`, the cell number change was -4.78%. Besides, the AC50 under setting [1] is 6.51 µM [rising, single point].
As for `O=C1CCCc2cc3c(cc21)CC1(C3)Cc2cc3c(cc2C1)C(=O)CCC3`, the cell number change came out at 64.8%. Under setting [1], the concentration at half-maximal activity (AC50) was 29.1 µM [rising, single point]. The concentration at half-maximal activity (AC50) under setting [2] is 29.1 µM [rising, single point].
On to `COc1cc(CNS(=O)(=O)c2ccc3c(c2)CC(C)N3C(=O)C2CCC2)cc(OC)c1OC` (centres undefined), for which the AC50 is 2.31 µM [falling, partial curve] under setting [1] and 2.06 µM [falling, partial curve] under setting [2].
Regarding `Cn1nnnc1SCCNCc1ccccc1OCc1ccccc1Cl`, the cell number change worked out at 16.3%.
For `O=C(CCn1cccc1)Nc1ccc(F)cc1`, the cell number change worked out at 1.9%.
As to `CCOc1ccc(C2C(=O)N(C3CCCCC3)CC(=O)N2CC2CCCO2)cc1OC` (centres undefined), the cell number change was determined as 16.1%.
As for `O=C(NCCN1CCOCC1)c1cc(-c2ccc(Cl)cc2)on1`, the cell number change worked out at 5.88%. Further, the AC50 under setting [2] was 0.731 µM [rising, partial curve, poor fit].
Regarding `CCn1cc(S(=O)(=O)c2ccc(OC)cc2)c(=O)c2cc(F)c(N3CCN(C)CC3)cc21`, the cell number change is 34%. Moreover, the half-maximal activity concentration (AC50) under setting [1] was 29.1 µM [rising, single point].
For `O=C(O)C1CCN(S(=O)(=O)c2ccc(Oc3ccccc3)cc2)CC1`, the cell number change was determined as 0.567%. Also, the AC50 under setting [2] was 6.51 µM [falling, single point].
Consider `Cc1cc(Cl)ccc1OC(C)C(=O)NCCCCc1ccccc1` (centres undefined), for which the cell number change stood at 0.542%. For the same compound, under setting [2], the AC50 was 1.16 µM [falling, full curve].
Regarding `OCC[C@@H]1C[C@H](O)[C@@H](O)[C@]2(Cc3ccccc3CO2)O1`, the cell number change is 8.38%. Moreover, under setting [2], the half-maximal activity concentration (AC50) was 6.51 µM [falling, single point].
Take `Cc1c(C#N)c2ncnc(-c3ccccc3)c2n1-c1ccccc1`: the cell number change is 0.656%. Besides, under setting [2], the AC50 is 0.058 µM [rising, full curve, poor fit].
On to `O=C(CN(Cc1cccs1)C(=O)CNS(=O)(=O)c1ccccc1)NCc1ccco1`, for which the cell number change was 25.3%. Also, the AC50 under setting [2] is 29.1 µM [rising, single point].
`O=C(NCC(F)(F)F)c1ccc(S(=O)(=O)N2CCN(C(=O)C3CCCO3)CC2)cc1` (centres undefined): the cell number change was -0.251%. In addition, the half-maximal activity concentration (AC50) under setting [2] was 0.731 µM [rising, full curve, poor fit].
For `CCN1CCN(C(=O)CCn2c(=O)c3cccn3c3cccnc32)CC1`, the cell number change worked out at 2.65%. Also, under setting [2], the half-maximal activity concentration (AC50) was 3.26 µM [falling, partial curve].
With `C#CCn1c(=NC(=O)c2ccc(Cl)s2)sc2cccc(OC)c21`, the concentration at half-maximal activity (AC50) under setting [1] was 6.51 µM [rising, single point] and the AC50 under setting [2] is 6.51 µM [rising, single point].
As for `CCC(C(=O)NC1CCCC1)N(Cc1ccco1)C(=O)Cn1nnc(-c2ccc(C)cc2)n1` (centres undefined), the cell number change was -132%. Moreover, the AC50 under setting [2] was 23.1 µM [falling, single point].
